Measured values reported in PubChem BioAssay (NCATS).
Inconclusive results, whose numbers are uncertain, are shown with a selection of clear calls. For some assays here: Potencies beside an inconclusive call are fits to weak or partial responses and may not hold up. Active and inactive are the calls of the source. Calls follow the shape of the dose curve; as a rule, active = well fitted cell-killing curve with a large enough effect; inconclusive = small, poorly fitted or top-dose-only effect, or effect the other way; inactive = no such curve, though single readings can be large or run the other way.

Experiments:
[1] = Quantitative High-Throughput drug screen in 47 multiple myeloma cell lines against the NCATS MIPE library collection: LP1_DSMZ cell viability assay (AID 1918982); also: nearly all actives have a fitted effect of over 35% in size; also: potency is read from the fitted curve at half-maximal effect
In short: (§1)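 ATP-based CellTiter-Glo luminescence after 48 h drug exposure (37 °C, 5% CO2) of 500 myeloma cells per well. DMSO-only wells set 100% viability, media-only wells 0%; MIPE 4.0 library added by pin tool.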

[2] = Quantitative High-Throughput drug screen in 47 multiple myeloma cell lines against the NCATS MIPE library collection: L363_DSMZ cell viability assay (AID 1918984); conditions: L363 myeloma viability, CellTiter-Glo ATP luminescence, 48 h; viability (% of control): at 45.8 µM (top of the series); also: nearly all actives have a fitted effect of over 40% in size; also: potency is read from the fitted curve at half-maximal effect
In short: as §1

[3] = Quantitative High-Throughput drug screen in 47 multiple myeloma cell lines against the NCATS MIPE library collection: KMS34_JCRB cell viability assay (AID 1918985); also: nearly all actives have a fitted effect of over 40% in size; also: potency is read from the fitted curve at half-maximal effect
In short: as §1

[4] = Quantitative High-Throughput drug screen in 47 multiple myeloma cell lines against the NCATS MIPE library collection: OCIMY7_PLB cell viability assay (AID 1918987); conditions: OCI-MY7 myeloma viability, CellTiter-Glo ATP, 48 h; viability (% of DMSO): at 45.8 µM (top of the series); also: potency is read from the fitted curve at half-maximal effect; nearly all actives have a fitted effect of over 65% in size
In short: as §1

[5] = Quantitative High-Throughput drug screen in 47 multiple myeloma cell lines against the NCATS MIPE library collection: OCIMY5_PLB cell viability assay (AID 1918988); also: nearly all actives have a fitted effect of over 65% in size; also: potency is read from the fitted curve at half-maximal effect
In short: as §1

[6] = Quantitative High-Throughput drug screen in 47 multiple myeloma cell lines against the NCATS MIPE library collection: SKMM1_PLB cell viability assay (AID 1919863); conditions: SKMM1 myeloma viability, CellTiter-Glo ATP, 48 h; viability: hits give low values; also: nearly all actives have a fitted effect of over 35% in size
In short: as §1

[7] = Quantitative High-Throughput drug screen in 47 multiple myeloma cell lines against the NCATS MIPE library collection: U266_ATCC cell viability assay (AID 1919864); conditions: U266 myeloma viability, CellTiter-Glo ATP luminescence, 48 h; viability (% of DMSO control): at 45.8 µM (top of the series); also: nearly all actives have a fitted effect of over 35% in size; also: potency is read from the fitted curve at half-maximal effect
In short: as §1

[8] = Quantitative High-Throughput drug screen in 47 multiple myeloma cell lines against the NCATS MIPE library collection: XG1_PLB cell viability assay (AID 1919866); conditions: CellTiter-Glo ATP, 48 h; viability: at 45.8 µM (top of the series); also: potency is read from the fitted curve at half-maximal effect; nearly all actives have a fitted effect of over 35% in size
In short: as §1

[9] = Quantitative High-Throughput drug screen in 47 multiple myeloma cell lines against the NCATS MIPE library collection: UTMC2_PLB cell viability assay (AID 1919868); conditions: CellTiter-Glo ATP luminescence, 48 h; viability (% of DMSO control): at 45.8 µM (top of the series); also: nearly all actives have a fitted effect of over 55% in size; also: potency is read from the fitted curve at half-maximal effect
In short: as §1

[10] = Quantitative High-Throughput drug screen in 47 multiple myeloma cell lines against the NCATS MIPE library collection: PE2_PLB cell viability assay (AID 1919869); conditions: PE2_PLB myeloma cells viability, ATP luminescence, 48 h; viability (% of control): at 45.8 µM (top of the series); also: nearly all actives have a fitted effect of over 35% in size; also: potency is read from the fitted curve at half-maximal effect
In short: as §1

[11] = Quantitative High-Throughput drug screen in 47 multiple myeloma cell lines against the NCATS MIPE library collection: RPMI8226_ATCC cell viability assay (AID 1919871); conditions: RPMI8226 myeloma viability, CellTiter-Glo ATP luminescence, 48 h; viability (% of control): at 45.8 µM (top of the series); also: nearly all actives have a fitted effect of over 30% in size; also: potency is read from the fitted curve at half-maximal effect
In short: as §1

[12] = Quantitative High-Throughput drug screen in 47 multiple myeloma cell lines against the NCATS MIPE library collection: KMS11_JCRBsus cell viability assay (AID 1919873); also: nearly all actives have a fitted effect of over 50% in size; also: potency is read from the fitted curve at half-maximal effect
In short: as §1

[13] = Quantitative High-Throughput drug screen in 47 multiple myeloma cell lines against the NCATS MIPE library collection: KMS28BM_JCRB cell viability assay (AID 1919874); also: nearly all actives have a fitted effect of over 35% in size; also: potency is read from the fitted curve at half-maximal effect
In short: as §1

[14] = Quantitative High-Throughput drug screen in 47 multiple myeloma cell lines against the NCATS MIPE library collection: KMS28PE_JCRB cell viability assay (AID 1918983)
In short: as §1

[15] = Quantitative High-Throughput drug screen in 47 multiple myeloma cell lines against the NCATS MIPE library collection: OPM2_DSMZ cell viability assay (AID 1919872); also: nearly all actives have a fitted effect of over 30% in size; also: potency is read from the fitted curve at half-maximal effect
In short: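 Inhibition of cell viability is measured here. Each line was plated at 500 cells per well, treated with MIPE 4.0 drugs, kept 48 hours at 37C, then assayed for ATP content by CellTiter-Glo luminescence.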

[16] = Quantitative High-Throughput drug screen in 47 multiple myeloma cell lines against the NCATS MIPE library collection: OPM1_PLB cell viability assay (AID 1918989); also: nearly all actives have a fitted effect of over 40% in size; also: potency is read from the fitted curve at half-maximal effect
In short: as §1

[17] = Quantitative High-Throughput drug screen in 47 multiple myeloma cell lines against the NCATS MIPE library collection: XG6_PLB cell viability assay (AID 1919865); conditions: XG6 myeloma viability, CellTiter-Glo ATP luminescence, 48 h; viability (% of control): at 45.8 µM (top of the series); also: potency is read from the fitted curve at half-maximal effect; nearly all actives have a fitted effect of over 40% in size
In short: as §1

[18] = Quantitative High-Throughput drug screen in 47 multiple myeloma cell lines against the NCATS MIPE library collection: VP6_DJ cell viability assay (AID 1919867); conditions: ATP luminescence, 48 h; viability (% of DMSO): at 45.8 µM (top of the series); also: nearly all actives have a fitted effect of over 40% in size; also: potency is read from the fitted curve at half-maximal effect
In short: as §1

[19] = Quantitative High-Throughput drug screen in 47 multiple myeloma cell lines against the NCATS MIPE library collection: PCM6_Riken cell viability assay (AID 1919870); also: nearly all actives have a fitted effect of over 30% in size; also: potency is read from the fitted curve at half-maximal effect
In short: as §1

SMILES | Potency [1] | Potency [2] | Potency [3] | Potency [4] | Potency [5] | viability [6] | Potency [7] | Potency [8] | Potency [9] | Potency [10] | Potency [11] | Potency [12] | Potency [13] | Potency [14] | Potency [15] | Potency [16] | Potency [17] | Potency [18] | Potency [19]
O=c1[nH]c2ccccc2n1CCCN1CCC(n2c(=O)[nH]c3cc(Cl)ccc32)CC1 | inconclusive: 16.6 µM [cytotoxic, partial curve] | inconclusive: 5.26 µM [cytotoxic, full curve] | inconclusive: 18.7 µM [cytotoxic, partial curve, poor fit] | inconclusive: 6.62 µM [cytotoxic, partial curve, poor fit] | inconclusive: 0.148 µM [cytotoxic, full curve, poor fit] | inactive: 125% | inactive | inconclusive: 29.6 µM [cytotoxic, single point] | inconclusive: 3.72 µM [cytotoxic, partial curve, poor fit] | inconclusive: 37.2 µM [cytotoxic, single point] | inconclusive: 18.7 µM [cytotoxic, partial curve] | inconclusive: 23.5 µM [cytotoxic, partial curve] | inconclusive: 0.235 µM [cytotoxic, partial curve, poor fit] |  |  |  |  |  | 
CC(=O)O[C@@]12CO[C@H]1C[C@H](O)[C@@]1(C)C(=O)[C@H](O)C3=C(C)[C@@H](O)C[C@@](O)([C@@H](OC(=O)c4ccccc4)[C@@H]21)C3(C)C | inconclusive: 3.72 µM [cytotoxic, full curve] |  |  | active: 2.09 µM |  |  | inactive |  | inconclusive: 1.48 µM [cytotoxic, full curve, poor fit] | inconclusive: 0.59 µM [cytotoxic, full curve] |  |  | inconclusive: 2.35 µM [cytotoxic, full curve] | active: 2.64 µM |  |  |  |  | 
Cn1cc(C2=C(c3cn(C4CCN(Cc5ccccn5)CC4)c4ccccc34)C(=O)NC2=O)c2ccccc21 | active: 10.5 µM |  |  |  |  |  | inconclusive: 13.2 µM [cytotoxic, partial curve, poor fit] |  | inconclusive: 2.64 µM [cytotoxic, full curve, poor fit] |  |  | inconclusive: 23.5 µM [cytotoxic, single point] | inactive | inconclusive: 37.2 µM [cytotoxic, single point] | inconclusive: 13.2 µM [cytotoxic, partial curve, poor fit] |  |  |  | 
O=[N+]([O-])c1ncc[nH]1 | inactive | inconclusive: 0.0105 µM [cytotoxic, full curve, poor fit] | inconclusive: 0.0026 µM [rising, full curve, poor fit] | inconclusive: 0.0235 µM [rising, full curve, poor fit] | active: 29.6 µM |  |  |  | inactive |  |  | inconclusive: 0.0332 µM [rising, full curve, poor fit] | inconclusive: 0.0296 µM [rising, full curve, poor fit] |  |  | inconclusive: 0.0047 µM [rising, full curve, poor fit] | inconclusive: 0.0148 µM [rising, full curve, poor fit] | inconclusive: 0.0093 µM [rising, full curve] | inconclusive: 0.0148 µM [rising, full curve, poor fit]
COc1cc(OC)c(OC)cc1C=O | inactive | inactive | inactive | inconclusive: 0.0017 µM [cytotoxic, full curve, poor fit] | inactive |  | inconclusive: 0.001 µM | inconclusive: 20.9 µM [cytotoxic, partial curve] | inactive |  | inconclusive: 0.332 µM [rising, full curve, poor fit] |  |  |  |  |  | inconclusive: 20.9 µM [cytotoxic, partial curve] | inactive | 
c1cc2c(cc1[C@H]1OC[C@H]3[C@H]1CO[C@H]3c1ccc3c(c1)OCO3)OCO2 | inconclusive: 20.9 µM [cytotoxic, single point] | inconclusive: 8.33 µM [cytotoxic, partial curve, poor fit] | inconclusive: 0.0019 µM [cytotoxic, full curve, poor fit] | inconclusive: 37.2 µM [cytotoxic, single point] | inconclusive: 37.2 µM [cytotoxic, single point] | inactive: 134% | inconclusive: 1.66 µM [rising, partial curve] |  | inconclusive: 14.8 µM [rising, partial curve, poor fit] | inconclusive: 0.001 µM | inactive |  |  |  | inactive |  |  | inactive | inactive
C[C@]12COC(=O)C[C@@H]1CC[C@@H]1[C@H]2CC[C@@]2(C)[C@H]1CC[C@]2(C)O | inconclusive: 0.001 µM | inactive | inconclusive: 11.8 µM [cytotoxic, partial curve, poor fit] | inconclusive: 2.09 µM [cytotoxic, partial curve, poor fit] | inactive |  | inactive |  | inconclusive: 0.0017 µM [cytotoxic, full curve, poor fit] | inactive |  | inactive | inactive |  |  | inactive | inconclusive: 0.0372 µM [rising, full curve, poor fit] | inconclusive: 0.0118 µM [rising, full curve] | inconclusive: 0.0469 µM [rising, full curve, poor fit]

A stretch of the results above:
SMILES | Potency [1] | Potency [2] | Potency [3] | Potency [4] | Potency [5] | viability [6] | Potency [7] | Potency [8] | Potency [9] | Potency [10] | Potency [11] | Potency [12] | Potency [13] | Potency [14] | Potency [15] | Potency [16] | Potency [17] | Potency [18] | Potency [19]
O=[N+]([O-])c1ncc[nH]1 | inactive | inconclusive: 0.0105 µM [cytotoxic, full curve, poor fit] | inconclusive: 0.0026 µM [rising, full curve, poor fit] | inconclusive: 0.0235 µM [rising, full curve, poor fit] | active: 29.6 µM |  |  |  | inactive |  |  | inconclusive: 0.0332 µM [rising, full curve, poor fit] | inconclusive: 0.0296 µM [rising, full curve, poor fit] |  |  | inconclusive: 0.0047 µM [rising, full curve, poor fit] | inconclusive: 0.0148 µM [rising, full curve, poor fit] | inconclusive: 0.0093 µM [rising, full curve] | inconclusive: 0.0148 µM [rising, full curve, poor fit]
COc1cc(OC)c(OC)cc1C=O | inactive | inactive | inactive | inconclusive: 0.0017 µM [cytotoxic, full curve, poor fit] | inactive |  | inconclusive: 0.001 µM | inconclusive: 20.9 µM [cytotoxic, partial curve] | inactive |  | inconclusive: 0.332 µM [rising, full curve, poor fit] |  |  |  |  |  | inconclusive: 20.9 µM [cytotoxic, partial curve] | inactive | 
